# Percent effect of library compounds

Mtb glucose medium: 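Growth of Mycobacterium tuberculosis over 3 days (7H9 medium with glucose and tyloxapol); the read-out is not stated. Compounds at 50 µM. The record gives no direction; compounds that gave an IC50 in retests scored well above the rest, so higher reads as more growth inhibition. Size under these conditions: about 69,000 compounds, about 760 of them at 50% or above in at least one test.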
Mtb cholesterol medium: 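Whole-cell growth test on Mycobacterium tuberculosis, read after 4 days in a medium based on cholesterol and the lipid DPPC; the read-out is not stated. Tested at 50 µM. The record gives no direction; compounds that gave an IC50 in retests scored well above the rest, so higher reads as more growth inhibition. Size under these conditions: about 69,000 compounds, about 370 of them at 50% or above in at least one test.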

Values are the deposited “Percent Effect”, in %.
The controls that fix the scale are not given in the record; negative values are as filed.
This is an unselected part of the compounds tested.
Two or more numbers in one place are separate tests of the same structure; such repeats can differ widely.

Compound | Mtb glucose medium | Mtb cholesterol medium
COC(=O)[C@@H]1C[C@@H](NC(=O)CN2C(=O)N(C)Cc3ccccc32)CN1C | -4.143% | -11.04%
Cc1noc(C)c1CN1CCC(N(C)Cc2noc(C(C)C)n2)C1 (stereo not given) | 28% | 1.675%
O=C(CSc1nnc(N2CCNCC2)s1)Nc1ccccc1.O=C(O)C(F)(F)F | -52.9% | -75.32%
CCc1nc(CN2CCN(C(=O)c3cncnc3CC)CC2)cs1 | -15.83% | -12.33%
CC(=O)c1cc(C(=O)N2Cc3ccccc3OC3(CCOCC3)C2)cs1 | 2.402% | -4.41%
Cc1noc(CNc2ccc(C(=O)N3CCCC(C)C3)cc2C)n1 (stereo not given) | 5.978% | 7.479%
CN(Cc1ccc(N2CCOCC2)cc1)Cc1noc(C(C)(C)C)n1 | -12.76% | -28.46%
Cc1cccc(CN2CCCC2(C(N)=O)c2cnccn2)n1 (stereo not given) | 15.9% | -37.89%
COc1cccc(N2CC3(CCN(c4cc(OC)ncn4)C3)CC2=O)c1 (stereo not given) | -14.82% & -54.07% | -21.67% & 3.316%
CCC(=O)N1CCC(c2cc(Nc3ncccn3)nc(C)n2)C1 (stereo not given) | -0.4607% | -6.977%
O=C(O)C(F)(F)F.[H][C@@]12CCN(C(=O)c3cccn3C)[C@@]1([H])CC(=O)N2CCN1CCOCC1 | -18.27% | 3.637%
c1csc(-c2nc(CN3CCCC3Cn3cccn3)co2)c1 (stereo not given) | 11.76% | 7.737%
CCc1c(C(=O)N2CCN(c3cnccn3)CC2)cnn1C(C)(C)C | 16.72% | -12.86%
Cc1ccc(O)c(CN(CCCn2ccnc2)Cc2ccc(C)s2)c1.O=C(O)CC(O)(CC(=O)O)C(=O)O | 53.05% | 6.132%
Cc1ccn(-c2cncc(C(N)=O)c2)n1 | -19.96% | -16.19%
CCCN(Cc1nccn1C)C(=O)c1cc(C(C)C)on1 | 3.842% & -4.03% | 15.19%
CN(Cc1ccc(Cl)s1)C(=O)COc1cccc(C(N)=O)c1 | -1.636% & -10% | -15.46%
O=C(O)C(F)(F)F.O=C(O)C(F)(F)F.O=C(c1ccncc1F)N1Cc2nc(CN3CCCCC3)oc2C1 | -8.307% | -26.73%
CN(C)c1cc(C2CCCN2C(=O)c2ccc(=O)n(C)c2)ccn1 (stereo not given) | -34.57% | -10.52%
CN(CCS(=O)(=O)c1cc(Cl)ccc1Cl)CC(N)=O | 42.16% & 45.21% | 18.11%
COc1ccc(CN(Cc2ccccn2)Cc2cncn2C)cc1.O=C(O)CC(O)(CC(=O)O)C(=O)O | 22.24% | 7.193%
CN(C)C(=O)NCc1cc2n(n1)CCCN(CC1CCCNC1)C2 (stereo not given) | 6.355% | -1.738% & 8.707%
CC(CN1CCC(c2ccccc2)CC1)n1cnc2ccccc21 (stereo not given) | 19.86% & 27.69% | 30.48%
O=C1C(Sc2nnnn2C2CC2)CCN1c1ccccc1F (stereo not given) | 9.133% | -2.459%
Cn1c(Cn2ccnc2)nnc1C1CCN(Cc2cccnc2N)CC1 | -3.265% & -8.01% | -23.6%
COc1ccc(C(C(=O)O)N(C)CCN2CCCC2)cc1F (stereo not given) | -33.29% | -13.3%
CC(=O)c1cnc(NCC2OCCc3ccccc32)nc1C (stereo not given) | -1.563% | -7.84%
Cc1ccc(C)c(C(NC2CCCC2)c2cccnc2)c1 (stereo not given) | -17.97% | 3.267%
Cn1nc(COCC2CC2)c2c1CCN(Cc1ccco1)C2.O=C(O)C(F)(F)F | -29.43% | 13.54%
Cc1c(Br)cnn1CC(=O)Nc1ccon1 | -1.177% | -0.9116%
CN1C[C@@H](N)C[C@H]1C(=O)N1CCC(CCCc2ccccc2)CC1 | 28.35% | 15.45%
Cc1c(C(=O)NCC(C)C)nnn1-c1cccc2c1CCN(C(C)C)C2 | -1.428% | 1.128% & -22.5%
Cc1noc(C(C)N2CCN(CCc3ccncc3)CC2)n1 (stereo not given) | -23.71% & 5.505% | -19.76%
Cc1nn(C)c(C)c1CC(=O)N1CCCC(n2cccn2)C1 (stereo not given) | 14.95% | 4.329%
COc1cccc(CC2CN(C(=O)c3ccnn3C)CCO2)c1 (stereo not given) | 0.625% & 7.692% | -4.982%
CN(C)C1CCN(C(=O)NCc2ccccc2Cn2cncn2)CC1 | -10.33% | 21.68%
O=C(NCc1cccnc1-n1cncn1)C1CC2(CCNCC2)CN1 (stereo not given) | -19.99% | 3.46%
COc1ccc2c(c1)CCCN2C(=O)c1cccc(N(C)C)c1 | -13.35% | -6.109%
CNc1cccc(CC2COCCN(C(=O)c3cnn(C)c3)C2)n1 (stereo not given) | 15.22% | -3.883% & 19.26%
Cc1cc(C(F)(F)F)n2nc(C3CCN(S(=O)(=O)N(C)C)CC3)cc2n1 | -4.608% | -18.25% & 20.32%
CCN1CCN(C(=O)c2cnc3c(cnn3C3CCCC3)c2)CC1 | 15.99% & 6.974% | 5.931%
Cc1nc(-c2ccsc2)ccc1C(=O)NCCN1CCN(C)CC1 | -23.68% | 16.62%
CC(N)Cc1ccccc1Sc1ccc(O)cc1.CC(N)Cc1ccccc1Sc1ccc(O)cc1.O=C(O)C(=O)O (stereo not given) | 33.07% & 45.43% | 19.52%
CCCOCC(=O)N1CCCN(Cc2csc(CC)n2)CC1 | -33.68% | 1.306%
O=C(O)C(F)(F)F.[H][C@@]12CCN(Cc3c(C)noc3C)C[C@]1(C(=O)N(C)C)CCO2 | 4.504% | -33.06%
CCCn1ncc(-c2nc3c(cnn3CC)[nH]2)c1C | 7.355% | -33.13%
CNS(=O)(=O)c1cccc(CNc2cc(C(F)(F)F)ccn2)c1 | 25.28% | -16.45%
CC(C)(C)c1cnc(CN2CCC(CN3CCOCC3)CC2)o1 | 8.1% | -7.222%
Cc1[nH]c(=O)[nH]c(=O)c1CN1CCCC(CCc2ccccc2)C1 (stereo not given) | -12.45% | 15.43%
O=S(=O)(NCCc1c[nH]c2cc(F)ccc12)C1CCOC1 (stereo not given) | 10.89% | 0.8372%
CCOC1CCN(C(=O)Nc2ccc(=O)n(C)c2)CC1 | -11.53% | 4.659%
N#Cc1cccc(OCCN2CCn3c(nnc3C3CC3)C2)c1 | -9.35% | 1.986%
O=C(c1ccco1)N1CCc2c(nc(-c3ccncc3)[nH]c2=O)C1 | -11.32% & -39.22% | -35.57%
Cc1cnn(C2CN(Cc3nc(-c4ccco4)no3)C2)c1 | -18.09% | -25.96%
CCOC1CCN(CCc2nc(-c3cccc(Cl)c3)no2)CC1 | 37.26% & 41.06% | 35.07%
Cc1cc(C2CCC2)nc(N2CCC3(CCCN(C)C3=O)C2)n1 (stereo not given) | 8.822% | 15.79%
Cc1cc(C(=O)N2CCCC(c3cc(=O)nc4n3CCC4)C2)on1 (stereo not given) | 2.986% | 10.8% & 5.342%
CNc1nc(C(=O)NCc2cccnc2N(C)C)cs1 | 4.667% & 2.564% | 16.32%
CCn1c(C2CCN(C(=O)c3cc(CC(C)C)no3)CC2)nn(C)c1=O | -5.085% | -18.9%
CC(C)(C)N1CC(C(=O)NCc2cn3cccnc3n2)CC1=O (stereo not given) | -1.163% & 18.81% | 14.26%
COc1ccc(CCN(C)C(C(=O)O)c2ccc(F)c(C)c2)cc1OC (stereo not given) | 0.1897% | -7.746%
COc1ncc(NCc2ccc(C#N)cc2)cc1C(N)=O | 2.348% | 1.051%
CC(=O)N1C[C@@H](F)[C@@H](OCc2nc3ccc(C#N)cc3[nH]2)C1 | 3.609% & -14.3% | 8.521%
O=C(NCc1cccnc1)N1CCc2ncnc(C3CC3)c2CC1.O=C(O)C(F)(F)F | 4.53% & -1.434% | 9.45%
Cn1cc(C2CCCN2C(=O)CCCc2cccs2)cn1 (stereo not given) | 0.006362% & -49.74% | -9.304%

Once more, the final 5:

- COc1ccc(CCN(C)C(C(=O)O)c2ccc(F)c(C)c2)cc1OC (stereo not given) : Mtb glucose medium: 0.1897%; Mtb cholesterol medium: -7.746%
- COc1ncc(NCc2ccc(C#N)cc2)cc1C(N)=O : Mtb glucose medium: 2.348%; Mtb cholesterol medium: 1.051%
- CC(=O)N1C[C@@H](F)[C@@H](OCc2nc3ccc(C#N)cc3[nH]2)C1 : Mtb glucose medium: 3.609% & -14.3%; Mtb cholesterol medium: 8.521%
- O=C(NCc1cccnc1)N1CCc2ncnc(C3CC3)c2CC1.O=C(O)C(F)(F)F : Mtb glucose medium: 4.53% & -1.434%; Mtb cholesterol medium: 9.45%
- Cn1cc(C2CCCN2C(=O)CCCc2cccs2)cn1 (stereo not given) : Mtb glucose medium: 0.006362% & -49.74%; Mtb cholesterol medium: -9.304%

Source: ChEMBL document CHEMBL3988442, “University of Dundee, Small-Polar-MMV Screening Library” (2021).